## Microarray screen: hit calls

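The test is a small-molecule microarray: each compound is printed twice on a reactive slide, and binding shows as fluorescence of the labelled oligonucleotide after washing. The data file lists only calls. An earlier report of the laboratory on the PreQ1, TPP and SAM-II riboswitches (doi:10.1038/s41467-019-09493-3) used 1 µM RNA for 2 h and required a mean Z-score above 3 (spot signal-to-noise against the whole library), a score well above that on a control array, and duplicate spots agreeing (coefficient of variation under 100); it then also set aside compounds that hit other targets, which this list keeps. The cut-offs behind this list may differ. These are primary screening calls, not affinities; a compound without a hit may have attached poorly or may still bind in solution.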
A compound is marked hit if it was called a hit and none if it was screened but was not.
This is an unselected part of the compounds tested.
A target missing from an entry has no call listed here.

Targets (5′ to 3′):
SAM-II: SAM-II riboswitch RNA pseudoknot, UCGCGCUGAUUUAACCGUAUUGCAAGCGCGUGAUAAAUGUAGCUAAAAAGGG. Hit rate about 1% of about 21,000 compounds.
TPP: TPP riboswitch RNA three-way junction, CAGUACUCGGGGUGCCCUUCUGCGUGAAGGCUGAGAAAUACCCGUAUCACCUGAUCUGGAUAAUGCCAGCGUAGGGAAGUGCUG. Hit rate about 0.7% of about 24,000 compounds.
PreQ1: PreQ1 riboswitch RNA pseudoknot, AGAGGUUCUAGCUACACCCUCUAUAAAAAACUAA. From B. subtilis. Hit rate about 0.7% of about 24,000 compounds.

{"structure": "Cc1ccccc1CNCCNC(=O)c1nonc1N", "SAM-II": "none", "TPP": "none", "PreQ1": "none"}
{"structure": "Nc1ccc(OC(=O)Nc2ccc(O)cc2)cc1", "SAM-II": "none", "TPP": "none", "PreQ1": "none"}
{"structure": "COC(=O)C1=C(N)OC2=C(C(=O)CCC2)C1c1cccnc1", "stereo": "centres unmarked", "SAM-II": "none", "TPP": "none", "PreQ1": "none"}
{"structure": "CCCCn1c(=N)n(CCO)c2ccccc21", "SAM-II": "none", "TPP": "none", "PreQ1": "none"}
{"structure": "CCc1ccc(C(=O)c2c(N)c(C(=O)Nc3cccc(F)c3)c3ccccn23)cc1", "TPP": "none", "PreQ1": "none"}
{"structure": "Nc1ccc(Oc2cccc(Cl)c2)cc1", "SAM-II": "none", "TPP": "none", "PreQ1": "none"}
{"structure": "O=C(CSc1nc[nH]n1)N1CC[C@@H](c2ccc3ccccc3c2)[C@H](O)C1", "SAM-II": "none", "TPP": "none", "PreQ1": "none"}
{"structure": "Cc1cc2c(cc1CN)OCCO2", "SAM-II": "none", "TPP": "none", "PreQ1": "none"}
{"structure": "COc1ccc(C2C3=C(CC(C)(C)CC3=O)OC(N)=C2[N+](=O)[O-])cc1OC", "stereo": "centres unmarked", "SAM-II": "none", "TPP": "none", "PreQ1": "none"}
{"structure": "CC(C)c1nc(CNC(=O)c2cc(CN3CCCC(O)C3)on2)no1", "stereo": "centres unmarked", "SAM-II": "none", "TPP": "none", "PreQ1": "none"}
{"structure": "Cc1cccc(CN2CCC(Cc3ccc(CO)cc3)C2)n1", "stereo": "centres unmarked", "SAM-II": "none", "TPP": "none", "PreQ1": "none"}
{"structure": "O=c1[nH]c2nc(Cl)nc(Cl)c2[nH]1", "SAM-II": "none", "TPP": "none", "PreQ1": "none"}
{"structure": "Cc1c(NCc2cccnc2)cccc1C(=O)NC(C)(C)C(=O)O", "SAM-II": "none", "TPP": "none", "PreQ1": "none"}
{"structure": "CCOC(=O)N1CCC(Nc2nc3ccc(C)cc3n3cnnc23)CC1", "TPP": "none", "PreQ1": "none"}
{"structure": "CCOC(=O)C1CCN(c2c(NCCN3CCOCC3)c(=O)c2=O)CC1", "SAM-II": "none", "TPP": "none", "PreQ1": "none"}
{"structure": "Cc1c(CN2CCC(C(O)CCc3ccccc3)CC2)cc(C#N)n1C", "stereo": "centres unmarked", "SAM-II": "none", "TPP": "none", "PreQ1": "none"}
{"structure": "COc1ccc(OC)c(NC(=O)c2c(NCc3cccs3)sc3c2CCCC3)c1", "SAM-II": "none", "TPP": "none", "PreQ1": "none"}
{"structure": "O=C(NCCn1ccnc1-c1cc2n(n1)CCCNC2)c1ccc(F)cc1", "SAM-II": "none", "TPP": "none", "PreQ1": "none"}
{"structure": "O=C(NCCCNc1nc(Nc2cccc(NC(=O)N3CCCC3)c2)ncc1I)c1cccs1", "SAM-II": "none", "TPP": "none", "PreQ1": "none"}
{"structure": "CCOC(=O)c1sc2nc(C)nc(NCc3ccc(Cl)cc3)c2c1C", "SAM-II": "none", "TPP": "none", "PreQ1": "none"}

Repeated from the top, 2 entries:

structure,SAM-II,TPP,PreQ1
Cc1ccccc1CNCCNC(=O)c1nonc1N,none,none,none
Nc1ccc(OC(=O)Nc2ccc(O)cc2)cc1,none,none,none

Source: the ROBIN nucleic acid binder screens (doi:10.1002/anie.202211358).